Assay results published in US9364480B2, “Pharmaceutical composition for preventing or treating cancer, containing enoblock as active ingredient” (GWANGJU INSTITUTE OF SCIENCE AND TECHNOLOGY, priority 2012, dated 2016).
At least one structure is not confirmed: it was looked up by name or label, or the drawing left a doubt.

Columns and labels:
[1] = test system: PEPCK expression in adult zebrafish liver; assay: PEPCK expression in adult zebrafish liver; settings: 10 μM, 3 h
[2] = test system: macrophages; assay: Foam cell formation from macrophages treated with oleic acid; type: cell-based; settings: 10 μM
[3] = test system: PEPCK expression in HEK cells; assay: PEPCK expression in kidney cells; type: cell-based; settings: 10 μM, 24 h
Text: (§1) FIG. 10. […] Error=SD; *=P<0.05 compared to the no drug (DMSO-treated) group. […] Error=SD; *=P<0.05 for reduced PEPCK expression compared to the no drug (DMSO-treated) group.

[4] = test system: glucose 6-phosphatase (G6 Pase) expression in hepatocytes; assay: G6 Pase expression in hepatocytes; type: cell-based; settings: 10 μM, 24 h
Text: as §1

[5] = test system: 5′ AMP-activated protein kinase (AMPK) expression in hepatocytes; assay: AMPK expression in hepatocytes; type: cell-based; settings: 10 μM, 24 h
Text: as §1

[6] = test system: phosphoenolpyruvate carboxykinase (PEPCK) expression in Huh7 hepatocytes; assay: PEPCK expression in hepatocytes; type: cell-based; settings: 10 μM, 24 h
Text: as §1

[7] = test system: monocytes; assay: Monocyte differentiation into macrophages (attached cell count, PMA); type: cell-based; settings: PMA treated; 10 μM
Experimental: FIG. 14. […] Treatment with 3 mM H2O2 for 48 h was used as a positive control.

[8] = test system: Huh7 hepatocytes; assay: Glucose uptake with fluorescent glucose probe 2-NBDG, hepatocytes; type: cell-based; settings: 10 μM, 24 h
[9] = test system: HEK kidney cells; assay: Glucose uptake with fluorescent glucose probe 2-NBDG, kidney cells; type: cell-based; settings: 10 μM, 24 h
[10] = test system: HCT116 cancer cells; assay: Cancer cell invasion (transwell inserts, crystal violet); type: cell-based
Experimental: FIG. 7. […] (b) Microscopic images of crystal violet stained HCT116 cells invaded onto the transwell inserts (scale bar=100 μm). […] (d) Microscopic images of crystal violet stained HCT116 cells migrated onto the transwell inserts (scale bar=100 μm). […] Cells were treated with 10 nM taxol and 10 nM vincristine, with or without 10 μM ENOblock. Error=SD; *=P<0.05 between the groups indicated on the graph. […] For the AKT Western blot, cells were treated with ENOblock for 24 h; for the Bcl-Xl Western blot, cells were treated with ENOblock for 48 h.

Row | Compound | hepatic PEPCK expression in vivo [1] | foam cell formation (count of cells showing lipid accumulation) [2] | PEPCK expression [3] | glucose 6-phosphatase (G6 Pase) expression [4] | AMPK expression [5] | PEPCK expression [6] | monocyte differentiation into macrophages (number of attached cells) [7] | glucose uptake (2-NBDG) [8] | glucose uptake (2-NBDG) [9] | cancer cell invasion ([10]; HCT116, normoxia, 5 μM, P value=0.27) | cancer cell invasion (positive control) ([10]; HCT116, 5 mM)
1 | CN(CCOc1ccc(CC2SC(=O)NC2=O)cc1)c1ccccn1 (centres unmarked) [rosiglitazone, reference compound] | also inhibited PEPCK expression in the zebrafish liver | did not affect the number of cells showing lipid accumulation | did not reduce PEPCK expression | did not affect the expression of these enzymes | did not affect the expression of these enzymes | could also inhibit PEPCK expression | did not affect differentiation into macrophages | could induce glucose uptake in hepatocytes | not kidney cells | – | –
2 | O=c1cc(N2CCOCC2)oc2c(-c3ccccc3)cccc12 [LY294002, reference compound] | – | – | – | – | – | – | – | – | – | reduced cancer cell invasion, but without achieving statistical significance | noticeable reduction in invaded cancer cells
